For experiment [1], the target named is T1, TIM-1 (UniProt Q96D42).
T1 sequence: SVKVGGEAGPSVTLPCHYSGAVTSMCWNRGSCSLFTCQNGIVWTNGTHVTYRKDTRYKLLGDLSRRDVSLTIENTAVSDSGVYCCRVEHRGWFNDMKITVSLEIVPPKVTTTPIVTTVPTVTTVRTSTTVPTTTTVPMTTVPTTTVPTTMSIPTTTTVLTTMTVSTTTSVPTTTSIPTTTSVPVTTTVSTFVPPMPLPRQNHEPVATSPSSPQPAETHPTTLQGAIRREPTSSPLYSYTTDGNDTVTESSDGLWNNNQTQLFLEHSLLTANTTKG
The experiment is described as follows: magnetic relaxation (T2) nanosensor assay; receptor conjugated to iron oxide nanoparticles (MRNPs); ZENV 3E-8 M in solution; PBS 1X, pH 7.4; 30 minutes at 25 °C; T2 compared with MRNPs alone; both purified.

In experiment [2] the target is T1, TIM-1. The experiment is described as follows: magnetic relaxation (T2) nanosensor assay; duplicate of the receptor-MRNP assay with ZENV, in human plasma solutions; both purified.

Results are given in words; binding and its absence hold for the method and conditions named. Binding calls can cover weak binding; strength is not graded here.

Take zika envelope protein: the binding entry in experiment [1] and in experiment [2] was “binds” throughout.

The values above are taken from PMC5547150.
